No constants are given. Whether binding was seen depends on the method and setting. Binding calls can cover weak binding; strength is not graded here.

In this assay the target is T1, FlgL (HAP3), hook-associated protein of V. vulnificus MO6-24/O (Vibrio vulnificus).
T1 sequence: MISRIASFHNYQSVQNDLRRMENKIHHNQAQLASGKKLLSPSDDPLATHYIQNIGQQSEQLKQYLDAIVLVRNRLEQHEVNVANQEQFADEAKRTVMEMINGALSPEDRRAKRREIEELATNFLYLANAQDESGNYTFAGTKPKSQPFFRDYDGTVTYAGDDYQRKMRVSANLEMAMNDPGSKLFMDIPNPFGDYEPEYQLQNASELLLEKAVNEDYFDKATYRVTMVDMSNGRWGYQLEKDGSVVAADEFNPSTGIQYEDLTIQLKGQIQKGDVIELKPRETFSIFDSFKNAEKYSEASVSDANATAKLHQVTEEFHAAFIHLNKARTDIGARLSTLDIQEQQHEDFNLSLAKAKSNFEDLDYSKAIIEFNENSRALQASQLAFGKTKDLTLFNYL
Description: two-hybrid; bacterial two-hybrid (BACTH, pUT18c and pKT25) in E. coli BTH101; β-galactosidase by colour on LB-X-Gal agar with 0.5 mM IPTG and by ONPG assay (Miller units); compared with the positive (zip/zip) and negative (empty vectors) controls.

Turning to “FlaB, flagellin subunit of V. vulnificus MO6-24/O (Vibrio vulnificus)”, the binding entry is recorded as “binds”. The same measure for “FlaE, flagellin-homologous protein of V. vulnificus MO6-24/O (Vibrio vulnificus)”: “no binding”; for “FlaF, flagellin-homologous protein of V. vulnificus MO6-24/O (Vibrio vulnificus)”: “no binding”.

The values above are taken from paper PMC6692518.
